The list shows a part of the results. No stated cut-off is given here; in the data, active = 150% or more and inactive = the rest. Repeats are few or missing, and single values can be far off.

This assay relates to Staphylococcus aureus JE2-lux inside RAW 264.7 macrophages. In words: intracellular bacterial bioluminescence relative to DMSO vehicle; higher = higher intracellular bacterial metabolic activity. The following applies: 10 µM; treatment time 4 h; gentamicin 50 µg/ml.
Turning to `CCOc1ccc2ncc(C(=O)NCc3ccc(F)cc3)c(O)c2c1`, the intracellular bacterial bioluminescence was inactive: 59.6%.

Turning to `COCCCNc1c2c3c(cccc3[nH]c1=O)C(=O)c1ccccc1-2`, the intracellular bacterial bioluminescence is inactive: 97.2%.

Take `CC(=O)Nc1ccc(NC(=O)c2cnc3c(c(C)nn3-c3ccccc3)c2Cl)cc1`: the intracellular bacterial bioluminescence was inactive: 122%.

Turning to `C=CCOc1cc(C2CC(=O)Nc3c2c(C)nn3-c2nncc(-c3ccc(C)cc3)n2)ccc1OC` (stereo not given), the intracellular bacterial bioluminescence was inactive: 101%.

In the case of `COc1cc(C)c(-c2nc(NC(=O)C3(C)CCCO3)sc2C)cc1C` (stereo not given), the intracellular bacterial bioluminescence is inactive: 102%.

`N#Cc1c(NC(=O)CC2SC(=N)NC2=O)sc2c1CCCC2` (stereo not given): the intracellular bacterial bioluminescence is inactive: 114%.

In the case of `Cc1csc2nc(O)c(C(=O)NCCCN3CCOCC3)c(=O)n12`, the intracellular bacterial bioluminescence is inactive: 127%.

Take `CCc1ccc(-c2noc3c(=O)n(CCC(=O)NCCCN4CCCC4=O)cnc23)cc1`: the intracellular bacterial bioluminescence was inactive: 90.7%.

As for `CCN(CC)c1cc(CNC(=O)Nc2ccc3c(c2)OCO3)ccn1`, the intracellular bacterial bioluminescence was inactive: 63.6%.

With `O=C(Cn1c2c(c(=O)n3nc(-c4ccccc4)nc13)CCC2)NCC1CCCO1` (stereo not given), the intracellular bacterial bioluminescence was inactive: 96.5%.

With `O=C(COc1ncnc2onc(-c3ccccc3)c12)Nc1ccc(Br)cc1F`, the intracellular bacterial bioluminescence is inactive: 41.6%.

`COc1cc(NC(=O)CSc2nnc(-c3ccc(NS(=O)(=O)c4ccccc4)cc3)o2)cc(OC)c1`: the intracellular bacterial bioluminescence was inactive: 62.6%.

With `CCOC(=O)c1sc(NC(=O)c2ccc(Cl)s2)c(SC#N)c1C`, the intracellular bacterial bioluminescence is inactive: 90.7%.

Consider `COc1ccc(C(=O)CSc2cc(C)[nH]c(=O)n2)cc1`, for which the intracellular bacterial bioluminescence was inactive: 120%.

As to `CCCCNS(=O)(=O)c1ccc2[nH]c(=O)cc(C)c2c1`, the intracellular bacterial bioluminescence was inactive: 111%.

In the case of `Cc1ccn2c(=O)nc(SCC(=O)c3ccccc3)nc2c1`, the intracellular bacterial bioluminescence was inactive: 111%.

As for `Cc1ccc2cc(CCNC(=O)c3c(F)cccc3Cl)c(=O)[nH]c2c1C`, the intracellular bacterial bioluminescence was inactive: 83.8%.

With `CCOC(=O)N1CCC2(CC1)Oc1c(OC)cccc1C1CC(c3cc(C)ccc3O)=NN12` (stereo not given), the intracellular bacterial bioluminescence was inactive: 144%.

Consider `COCCNc1cc(C)nc2cc(-c3cc(OC)cc(OC)c3)nn12`, for which the intracellular bacterial bioluminescence is inactive: 101%.

Regarding `Cc1cc(NC(=O)c2ccccc2C(F)(F)F)n(-c2ncnc3c2cnn3-c2cccc(Cl)c2)n1`, the intracellular bacterial bioluminescence was inactive: 119%.

For the compound `Cc1ccc2nc(NCc3ccccc3)c(/C=N/Cc3cccnc3)c(=O)n2c1`, the intracellular bacterial bioluminescence was inactive: 91.8%.

For the compound `O=C(COc1ncnc2ccccc12)NC1(CN2CCCC2)CCCCC1`, the intracellular bacterial bioluminescence was inactive: 102%.

On to `O=C(CSc1nc(=O)[nH]c2c1CCCC2)NCc1ccc2c(c1)OCO2`, for which the intracellular bacterial bioluminescence was inactive: 139%.

As for `CC(SC1=Nc2ccccc2C2=NC(c3ccccc3)C(=O)N12)C(=O)Nc1ccc2c(c1)OCCO2` (stereo not given), the intracellular bacterial bioluminescence is inactive: 91%.

Turning to `COc1ccc(CCNC(=O)Cn2nc(-c3ccc(C)o3)cc(N)c2=O)cc1OC`, the intracellular bacterial bioluminescence is inactive: 58.2%.

Consider `COc1ccc2cc(C)c3nn(CCNC(=O)c4noc5c4CCCC5)c(=O)n3c2c1`, for which the intracellular bacterial bioluminescence was inactive: 79.5%.

For `N#Cc1c2c(c(NCCCO)n3c1nc1ccccc13)CCC2`, the intracellular bacterial bioluminescence is inactive: 120%.

`COC(=O)CSc1nc(-c2ccc(OC)cc2)nc2c1Cc1cc(C)ccc1O2`: the intracellular bacterial bioluminescence is inactive: 89.5%.

In the case of `C=CCN(C(=O)C(C)Sc1nc2ncccc2o1)c1ccccc1` (stereo not given), the intracellular bacterial bioluminescence was inactive: 100%.

As for `CCN(c1ccccc1)S(=O)(=O)c1ccc(C(=O)Nc2ccc3c(c2)C(=O)N(C)C3=O)cc1`, the intracellular bacterial bioluminescence was inactive: 92.6%.

As for `COc1ccc(OC)c(NS(=O)(=O)c2c(C)sc(C)c2-c2cc(C(F)(F)F)on2)c1`, the intracellular bacterial bioluminescence was inactive: 90.2%.

As to `Cc1nc(OCC(=O)NC2CCCc3ccccc32)c2c(-c3cccc(F)c3)noc2n1` (stereo not given), the intracellular bacterial bioluminescence was inactive: 51.3%.

For the compound `COc1cc(Cn2nc3n(C)c4ccccc4n3c2=O)cc(OC)c1OC`, the intracellular bacterial bioluminescence was inactive: 90.6%.

For `COc1ccccc1OCCN(C)C(=O)Cn1cnc2sc(C)cc2c1=O`, the intracellular bacterial bioluminescence is inactive: 49.3%.

Turning to `CC(Oc1cc2oc(=O)c3c(c2cc1Cl)CCC3)C(=O)O` (stereo not given), the intracellular bacterial bioluminescence was inactive: 116%.

For the compound `CCn1nnc2cc(-c3noc(C4CC(=O)N(c5ccccc5)C4)n3)ccc21` (stereo not given), the intracellular bacterial bioluminescence is inactive: 81.8%.

As for `Cn1ncc2c(NCc3ccc(F)cc3)nc(N3CCOCC3)nc21`, the intracellular bacterial bioluminescence is active: 166%.

Regarding `COCCn1/c(=N/C(=O)c2cc3ccccc3oc2=O)sc2cc(NC(C)=O)ccc21`, the intracellular bacterial bioluminescence is inactive: 103%.

Consider `CCOC(=O)CC1C(=O)NCCN1Cc1ccc(OC)c(OC)c1` (stereo not given), for which the intracellular bacterial bioluminescence is inactive: 127%.

Consider `Cc1c(-c2ccccc2)n[nH]c1C(=O)Nc1ccc(Oc2cccnc2)cc1`, for which the intracellular bacterial bioluminescence was inactive: 21.5%.

On to `Cc1nnc2ccc(C(=O)NCc3ccc(F)cc3)cn12`, for which the intracellular bacterial bioluminescence was inactive: 107%.

For `Cc1cc(C)c2sc(NNC(=O)c3ccc(S(=O)(=O)N4CCOCC4)cc3)nc2c1`, the intracellular bacterial bioluminescence was inactive: 59.8%.

Consider `CCCCn1c2c(c(=O)[nH]c1=O)C(c1cccc(F)c1)C1=C(COC1=O)N2` (stereo not given), for which the intracellular bacterial bioluminescence was inactive: 109%.

As for `Nc1nc(SCc2ccc3c(c2)OCO3)ns1`, the intracellular bacterial bioluminescence is inactive: 72.6%.

`COc1ccccc1-c1nc(SCC(=O)NCC2CCCO2)c2c(=O)n(C)c(=O)n(C)c2n1` (stereo not given): the intracellular bacterial bioluminescence was inactive: 103%.

`COc1ccc(NC(=O)c2cccc3nc4ccccc4nc23)c(OC)c1`: the intracellular bacterial bioluminescence is inactive: 75.7%.

On to `CN1C(=O)NC(c2cccc(F)c2)C(C(=O)c2cccs2)C1(O)C(F)(F)F` (stereo not given), for which the intracellular bacterial bioluminescence was inactive: 91.4%.

In the case of `Oc1ccc(C2=NN3C(C2)c2cc(Br)ccc2OC3c2ccncc2)c(O)c1` (stereo not given), the intracellular bacterial bioluminescence was inactive: 114%.

For the compound `Cc1ccc(Cl)c2sc(N3CCN(C(=O)c4cccc([N+](=O)[O-])c4)CC3)nc12`, the intracellular bacterial bioluminescence was inactive: 140%.

As to `CC(=O)N1c2ccc(NC(=O)CSc3nccc4ccccc34)cc2CC1C` (stereo not given), the intracellular bacterial bioluminescence is inactive: 47.9%.

On to `Cc1nc(-c2cccs2)c(CC(=O)NCc2ccc(Cl)cc2)s1`, for which the intracellular bacterial bioluminescence is inactive: 66%.

As to `Cc1ccccc1CNc1nc(NCCO)nc2c1cnn2C`, the intracellular bacterial bioluminescence is inactive: 113%.

For `CCOC(=O)c1c(NC(=O)CSc2nnc3ncccn23)sc(C)c1C`, the intracellular bacterial bioluminescence was inactive: 22.1%.

As for `Cc1nc2ccc(NC(=O)c3cccc(NS(=O)(=O)c4ccc(F)cc4)c3)cc2s1`, the intracellular bacterial bioluminescence is inactive: 100%.

Consider `O=C(Cn1c(=O)n(CCc2ccccc2)c(=O)c2c3c(sc21)CCCC3)Nc1ccc(F)c(F)c1`, for which the intracellular bacterial bioluminescence is inactive: 98.3%.

For `Cc1cc2cc3c(cc2nc1NCCNC(=O)c1ccco1)OCCO3`, the intracellular bacterial bioluminescence was inactive: 97.5%.

With `CCOC(=O)c1cnc2cc(OC)c(OC)cc2c1O`, the intracellular bacterial bioluminescence is inactive: 123%.

As to `COc1ccc(OC)c(Nc2ncc3c(n2)CCNC3)c1`, the intracellular bacterial bioluminescence was inactive: 101%.

For the compound `Cn1c2c(c(=O)[nH]c1=O)C(c1ccncc1)C1=C(CC(C)(C)CC1=O)N2` (stereo not given), the intracellular bacterial bioluminescence is inactive: 94%.

With `Cc1cc(=O)[nH]c(N2CCN(C(=O)N3CCCCC3)CC2)n1`, the intracellular bacterial bioluminescence is inactive: 96.6%.

Regarding `Cc1ccc2c(c1)C(=O)C(=O)N2CCn1c2ccccc2c2nc3ccccc3nc21`, the intracellular bacterial bioluminescence was inactive: 80.7%.

Consider `Cc1nnc2ccc(C(=O)N3CCN(Cc4ccccc4)CC3)cn12`, for which the intracellular bacterial bioluminescence was inactive: 124%.

Turning to `Cc1cc(NC(=O)COc2ccccc2F)n(-c2ncnc3c2cnn3-c2cccc(C)c2C)n1`, the intracellular bacterial bioluminescence was inactive: 127%.

In the case of `Cc1cc(C(=O)NCc2c[nH]nc2C)c2cccc(-c3ccc(F)cc3)c2n1`, the intracellular bacterial bioluminescence was inactive: 107%.

For the compound `CCN(CC)c1cc(C(=O)O)c2cc(NC(=O)CC(C)C)ccc2n1`, the intracellular bacterial bioluminescence was inactive: 120%.

As for `CC1CN(S(=O)(=O)c2ccc(NC(=O)CCN3C(=O)c4ccccc4C3=O)cc2)CC(C)O1` (stereo not given), the intracellular bacterial bioluminescence was inactive: 72.5%.

With `O=C(c1ccco1)N1CCN(c2ncnc3c(-c4ccc(Cl)cc4)nsc23)CC1`, the intracellular bacterial bioluminescence was inactive: 105%.

Regarding `Cc1ccc(C2C3=C(CC(C)(C)CC3=O)Nc3nc(SCCC(C)C)[nH]c(=O)c32)s1` (stereo not given), the intracellular bacterial bioluminescence was inactive: 106%.

In the case of `Cc1nnc(SCC(=O)Nc2ccc3c(c2)OCCO3)s1`, the intracellular bacterial bioluminescence was inactive: 114%.

Regarding `Cc1sc2nc(SCC(=O)NCCOCCO)nc(N)c2c1C`, the intracellular bacterial bioluminescence was inactive: 108%.

Turning to `CC1CCc2nc3ncn(CC(=O)NC4CCCC4)c(=O)c3cc2C1` (stereo not given), the intracellular bacterial bioluminescence was inactive: 104%.

`NS(=O)(=O)c1ccc(NC(=O)CN2C(=O)SC(=C3CCCCC3)C2=O)cc1`: the intracellular bacterial bioluminescence is inactive: 72.7%.

Regarding `Cc1cccc(NC(=S)N2CCC(n3c(C)nc4cc(F)ccc43)CC2)c1C`, the intracellular bacterial bioluminescence is inactive: 72.8%.

On to `Cc1cc2cc(CCNC(=S)Nc3ccccc3F)c(=O)[nH]c2cc1C`, for which the intracellular bacterial bioluminescence was inactive: 65.9%.

For `CCS(=O)(=O)c1cccc(C(=O)Nc2cccc(-c3nc4ccccc4o3)c2)c1`, the intracellular bacterial bioluminescence is inactive: 41.8%.

As to `CCn1nc(C)c2ccnc(N3CCC(C(=O)N4CCN(C5CCN(C)CC5)CC4)CC3)c21`, the intracellular bacterial bioluminescence was inactive: 113%.

Turning to `Cc1ccc(C(=O)Nc2ccccc2-c2nc3ccccc3[nH]c2=O)cc1`, the intracellular bacterial bioluminescence was inactive: 94%.

As for `CCOC(=O)c1cc(NC(=O)CSc2nnc3cc(C)c4ccccc4n23)cc(C(=O)OCC)c1`, the intracellular bacterial bioluminescence was inactive: 80.3%.

With `C=CCNC(CC(=O)Nc1ccc(O)cc1C)C(=O)O` (stereo not given), the intracellular bacterial bioluminescence was inactive: 111%.

On to `O=C(NCc1c(F)cccc1F)C(=O)Nc1cc(F)ccc1F`, for which the intracellular bacterial bioluminescence was inactive: 81.5%.

Turning to `O=C(N1CCc2nc(N3CCCC3)[nH]c(=O)c2C1)C1(c2ccc(Cl)cc2)CCC1`, the intracellular bacterial bioluminescence is inactive: 98.3%.

Consider `COc1ccc(NS(=O)(=O)c2cn(C)nc2C)cc1NC(=O)CN1CCCC1`, for which the intracellular bacterial bioluminescence is inactive: 107%.

As to `Cc1ccc(N(C(=O)c2csnn2)C(C(=O)NC(C)(C)C)c2ccncc2)cc1C` (stereo not given), the intracellular bacterial bioluminescence is inactive: 109%.

`Cc1cccn2c(=O)c(/C=C(\C#N)C(=O)NC3CCCC3)c(Oc3ccccc3F)nc12`: the intracellular bacterial bioluminescence was inactive: 86.5%.

As to `CCc1ccc(C2NC(=O)NC3=C2C(=O)CCC3)cc1` (stereo not given), the intracellular bacterial bioluminescence was inactive: 104%.

Turning to `COc1cc(Nc2ncnc3c(-c4ccccc4)noc23)cc(OC)c1`, the intracellular bacterial bioluminescence was inactive: 92.5%.

Consider `CCOC(=O)c1sc2nc3c(c(-c4ccc(OC)cc4)c2c1N)CCC3`, for which the intracellular bacterial bioluminescence is inactive: 93.3%.

In the case of `Cc1noc2ncnc(NCCN(C)C3CCCCC3)c12`, the intracellular bacterial bioluminescence is inactive: 108%.

With `CN(Cc1ccccc1)S(=O)(=O)c1ccc(C(=O)Nc2cc(C(F)(F)F)ccc2Cl)cc1`, the intracellular bacterial bioluminescence is inactive: 127%.

Turning to `O=C(NCc1ccc(F)cc1)C1CCN(c2ccc3nnc(-c4ccccc4Cl)n3n2)CC1`, the intracellular bacterial bioluminescence is inactive: 18.6%.
